According to the supplement of paper PMC9015667:
Where a name gives a salt, the structure may show the parent alone. This is one part of the list. Repeats are few or missing, and single values can be far off.

tested on: M238R (matched melanoma line resistant to BRAF inhibitors); assay: reduction in cell viability relative to untreated/vehicle; higher = more growth inhibition; conditions: 200 nM; 72 h

Row | SMILES | reduction in cell viability
1 | C[C@H](Cc1cc2c(c(C(N)=O)c1)N(CCCO)CC2)NCCOc1ccccc1OCC(F)(F)F [Silodosin] | < 0%
2 | Nc1ccc(C(=O)Nc2cccc(-c3nc(N4CCOCC4)c4oc5ncccc5c4n3)c2)cn1 | < 0%
3 | O=C(O)c1nc(=O)[nH]c(=O)[nH]1 [Oteracil potassium] | < 0%
4 | Cc1cn([C@H]2C[C@H](N=[N+]=[N-])[C@@H](CO)O2)c(=O)[nH]c1=O [Zidovudine] | < 0%
5 | Cc1cc2cc3c(C)cc(=O)oc3c(C)c2o1 [Trioxsalen] | < 0%
6 | CCCCCCNC(=O)n1cc(F)c(=O)[nH]c1=O [Carmofur] | < 0%
7 | OC[C@H]1O[C@@H](n2cnc3c2N=CNC[C@H]3O)C[C@@H]1O [Pentostatin] | < 0%
8 | N[C@@H](Cc1cc(I)c(Oc2cc(I)c(O)c(I)c2)c(I)c1)C(=O)O [L-Thyroxine] | < 0%
9 | CCCCCCCCCCCCCCCCCCOP(=O)([O-])OC1CC[N+](C)(C)CC1 [Perifosine] | < 0%
10 | CN1C(=O)C[C@@H](C(=O)N[C@@H](Cc2c[nH]cn2)C(=O)N2CCC[C@H]2C(N)=O)NC1=O [Taltirelin] | < 0%
11 | O=C(NC[C@H](O)CO)c1ccncc1Nc1ccc(I)cc1F [Pimasertib] | < 0%
12 | CC(C)C[C@@H](C=O)NC(=O)[C@H](CC(C)C)NC(=O)[C@H](CC(C)C)NC(=O)OCc1ccccc1 | 89.9%
13 | NC(=O)N1c2ccccc2CC(=O)c2ccccc21 [Oxcarbazepine] | < 0%
14 | O=C1NC(=O)/C(=C/c2ccc3nccc(-c4ccncc4)c3c2)S1 | < 0%
15 | NC(=O)c1ccc2[nH]ccc2c1 | < 0%
16 | C[C@H]1[C@H](NC(=O)/C(=N\OC(C)(C)C(=O)O)c2csc(N)n2)C(=O)N1S(=O)(=O)O [Aztreonam] | < 0%
17 | CO[C@@H]1[C@@H](OC(N)=O)[C@@H](O)[C@H](Oc2ccc3c(O)c(NC(=O)c4ccc(O)c(CC=C(C)C)c4)c(=O)oc3c2C)OC1(C)C [Novobiocin sodium] | < 0%
18 | C[C@@H]1CC(=O)NN=C1c1ccc(NN=C(C#N)C#N)cc1 [Levosimendan] | 0.64%
19 | Nc1cccc(S(=O)(=O)N2CCCN(S(=O)(=O)c3ccc4c(c3)OCCO4)CC2)c1 | < 0%
20 | CCOC(=O)N1CCN(/[N+]([O-])=N/Oc2ccc([N+](=O)[O-])cc2[N+](=O)[O-])CC1 | < 0%
21 | CC(C)NC[C@@H](C(=O)N1CCN(c2ncnc3c2[C@H](C)C[C@H]3O)CC1)c1ccc(Cl)cc1 | < 0%

tested on: M249P (parental melanoma line); assay: as above; conditions: 200 nM; 72 h

Row | SMILES | reduction in cell viability
22 | C=CCNC1=C2C[C@@H](C)C[C@H](OC)[C@H](O)[C@@H](C)/C=C(\C)[C@H](OC(N)=O)[C@@H](OC)/C=C\C=C(/C)C(=O)NC(=CC1=O)C2=O [Tanespimycin] | < 0%
23 | CCCS(=O)(=O)Nc1ccc(F)c(C(=O)c2c[nH]c3ncc(-c4ccc(Cl)cc4)cc23)c1F [Vemurafenib (PLX4032, RG7204)] | 1.97%
24 | Cc1cn2c(-c3cn[nH]c3)cnc2c(Nc2ccc(C(=O)N3CCNCC3)cc2F)n1 | < 0%
25 | CCc1cc(/C(C)=N/OCc2ccc(C3CCCCC3)c(C(F)(F)F)c2)ccc1CN1CC(C(=O)O)C1 | < 0%
26 | CCn1cc(C(=O)O)c(=O)c2cc(F)c(N3CCNC(C)C3)c(F)c21 (stereo not given) [Lomefloxacin hydrochloride] | < 0%
27 | Cc1c(CN2CCN(C(=O)[C@H](C)O)CC2)sc2c(N3CCOCC3)nc(-c3cnc(N)nc3)nc12 | 36%
28 | N=C(N)c1ccc(OCCCCCOc2ccc(C(=N)N)cc2)cc1 [Pentamidine isethionate] | < 0%
29 | CC(S)C(=O)NCC(=O)O (stereo not given) [Tiopronin] | < 0%
30 | Nc1nc2[nH]cnc2c(=S)[nH]1 [Tioguanine] | < 0%
31 | O=c1c(O)c(-c2cc(O)c(O)c(O)c2)oc2cc(O)cc(O)c12 [Myricetin] | < 0%
32 | COc1ccccc1N1CCN(CC(O)COc2cccc3ccccc23)CC1 (stereo not given) [Naftopidil] | < 0%
33 | CN1CC[C@H](c2c(O)cc(O)c3c(=O)cc(-c4ccccc4Cl)oc23)[C@H](O)C1 [Flavopiridol] | 83.3%
34 | COc1cc(OC)cc(-c2ccc3ncc4ccc(=O)n(-c5ccc(N6CCNCC6)c(C(F)(F)F)c5)c4c3c2)c1 | < 0%
35 | O=C(O)C[C@H](O)C[C@H](O)/C=C/c1c(C2CC2)nc2ccccc2c1-c1ccc(F)cc1 [Pitavastatin calcium] | < 0%
36 | C=C1/C(=C\C=C2/CCC[C@]3(C)[C@@H]([C@H](C)/C=C/C=C/C(O)(CC)CC)CC[C@@H]23)C[C@@H](O)C[C@@H]1O [Seocalcitol] | < 0%
37 | CCOc1cc2ncc(C#N)c(Nc3ccc(F)c(Cl)c3)c2cc1NC(=O)/C=C/CN(C)C [Pelitinib] | 25.6%
38 | Cc1cccc(-c2[nH]ncc2-c2ccc3ncccc3n2)n1 | < 0%
39 | CCC(=O)NCC[C@@H]1CCc2ccc3c(c21)CCO3 [Ramelteon] | < 0%
40 | C[C@H](Cc1cc2c(c(C(N)=O)c1)N(CCCO)CC2)NCCOc1ccccc1OCC(F)(F)F [Silodosin] | < 0%
41 | Nc1ccc(C(=O)Nc2cccc(-c3nc(N4CCOCC4)c4oc5ncccc5c4n3)c2)cn1 | < 0%

Row | SMILES | reduction in cell viability
42 | O=C(O)c1nc(=O)[nH]c(=O)[nH]1 [Oteracil potassium] | < 0%
43 | Cc1cn([C@H]2C[C@H](N=[N+]=[N-])[C@@H](CO)O2)c(=O)[nH]c1=O [Zidovudine] | < 0%
44 | Cc1cc2cc3c(C)cc(=O)oc3c(C)c2o1 [Trioxsalen] | < 0%
45 | CCCCCCNC(=O)n1cc(F)c(=O)[nH]c1=O [Carmofur] | < 0%
46 | OC[C@H]1O[C@@H](n2cnc3c2N=CNC[C@H]3O)C[C@@H]1O [Pentostatin] | < 0%
47 | N[C@@H](Cc1cc(I)c(Oc2cc(I)c(O)c(I)c2)c(I)c1)C(=O)O [L-Thyroxine] | < 0%
48 | CCCCCCCCCCCCCCCCCCOP(=O)([O-])OC1CC[N+](C)(C)CC1 [Perifosine] | < 0%
49 | CN1C(=O)C[C@@H](C(=O)N[C@@H](Cc2c[nH]cn2)C(=O)N2CCC[C@H]2C(N)=O)NC1=O [Taltirelin] | < 0%
50 | O=C(NC[C@H](O)CO)c1ccncc1Nc1ccc(I)cc1F [Pimasertib] | 90.7%
51 | CC(C)C[C@@H](C=O)NC(=O)[C@H](CC(C)C)NC(=O)[C@H](CC(C)C)NC(=O)OCc1ccccc1 | 92.3%
52 | NC(=O)N1c2ccccc2CC(=O)c2ccccc21 [Oxcarbazepine] | < 0%
53 | O=C1NC(=O)/C(=C/c2ccc3nccc(-c4ccncc4)c3c2)S1 | < 0%
54 | NC(=O)c1ccc2[nH]ccc2c1 | < 0%
55 | C[C@H]1[C@H](NC(=O)/C(=N\OC(C)(C)C(=O)O)c2csc(N)n2)C(=O)N1S(=O)(=O)O [Aztreonam] | < 0%
56 | CO[C@@H]1[C@@H](OC(N)=O)[C@@H](O)[C@H](Oc2ccc3c(O)c(NC(=O)c4ccc(O)c(CC=C(C)C)c4)c(=O)oc3c2C)OC1(C)C [Novobiocin sodium] | < 0%
57 | C[C@@H]1CC(=O)NN=C1c1ccc(NN=C(C#N)C#N)cc1 [Levosimendan] | < 0%
58 | Nc1cccc(S(=O)(=O)N2CCCN(S(=O)(=O)c3ccc4c(c3)OCCO4)CC2)c1 | < 0%
59 | CCOC(=O)N1CCN(/[N+]([O-])=N/Oc2ccc([N+](=O)[O-])cc2[N+](=O)[O-])CC1 | < 0%
60 | CC(C)NC[C@@H](C(=O)N1CCN(c2ncnc3c2[C@H](C)C[C@H]3O)CC1)c1ccc(Cl)cc1 | < 0%
